Data taken from paper PMC12001206, “Characterization of multiple binding sites on microtubule associated protein 2c recognized by dimeric and monomeric 14‐3‐3ζ” (The Febs Journal, 2025).
These are yes or no findings as the source states them, for the method shown. Some results given as binding are weak or reduced against the parent protein; the word gives no strength.

The chains behind the UniProt entries cited, without tags or fusion partners. Where a name states a change or a piece, a line headed by the entry shows the natural chain unless it says otherwise. A line that says so, or that is headed by a name, gives the form on record, which may keep a tag or linker.
MAP2c phosphorylated selectively by PKA at Ser435 (P15146, form named): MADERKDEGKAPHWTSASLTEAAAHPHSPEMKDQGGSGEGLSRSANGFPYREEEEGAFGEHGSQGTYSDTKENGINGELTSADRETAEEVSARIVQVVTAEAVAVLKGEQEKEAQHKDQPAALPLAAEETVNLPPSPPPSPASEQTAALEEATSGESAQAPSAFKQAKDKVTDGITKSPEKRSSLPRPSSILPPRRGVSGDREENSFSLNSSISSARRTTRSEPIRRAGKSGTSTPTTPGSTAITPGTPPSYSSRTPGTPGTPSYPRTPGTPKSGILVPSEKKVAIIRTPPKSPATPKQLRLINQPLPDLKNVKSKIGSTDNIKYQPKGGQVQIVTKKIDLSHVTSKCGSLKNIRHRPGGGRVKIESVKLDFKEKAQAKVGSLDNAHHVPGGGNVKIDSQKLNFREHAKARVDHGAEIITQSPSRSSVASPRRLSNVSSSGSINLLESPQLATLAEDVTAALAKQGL

Molecular target: MAP2c phosphorylated selectively by PKA at Ser435 (rat) (UniProt P15146)
Assay: NMR titration; 3D HNCO peak broadening; 100 μM 15N,13C-MAP2c sample with up to 200 μM 14-3-3ζ (monomer concentration); 27 °C; 50 mM MOPS, 100 mM NaCl, 0.5 mM TCEP; both purified

B1: dimeric pseudo wild‐type 14‐3‐3ζ (14‐3‐3ζ C25A/C189A) (natural protein)
chain: SVDMDKNELVQKAKLAEQAERYDDMAAAMKSVTEQGAELSNEERNLLSVAYKNVVGARRSSWRVVSSIEQKTEGAEKKQQMAREYREKIETELRDICNDVLSLLEKFLIPNASQAESKVFYLKMKGDYYRYLAEVAAGDDKKGIVDQSQQAYQEAFEISKKEMQPTHPIRLGLALNFSVFYYEILNSPEKAASLAKTAFDEAIAELDTLSEESYKDSTLIMQLLRDNLTLWTSDTQGDEAEAGEGGEN
notes: additional residues at the N-terminus; 14-3-3ζ, residues 1-245, UniProt P63104; C25A and C189A count on P63104; The results speak of '230 residues examined' in the crystals, the methods of residues 1-245 plus SVD; also called d14‐3‐3ζ; dimeric 14‐3‐3ζ
- binding: binds
